{"source": "PubChem BioAssay AID1259308 (NCATS, 2017)", "test": "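Candidate targets for better recombinant protein yield in mammalian cells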 (primary screen)", "cell system": "human HEK293 embryonic kidney cells stably expressing firefly luciferase (HEK-CMV-Luc2-Hygro)", "reagents": "single siRNA against human genes, 0.8 pmol siRNA per well", "timing": "72 h", "measured": "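Reporter luminescence and viable-cell signal on separate replicate plates, given as percent of non-targeting control and median/MAD z-scores, plus per-cell luciferase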", "reading the numbers": "total luciferase, z-score: higher = more reporter protein produced", "rule for the call": "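An siRNA counts as active if its total luciferase robust z-score exceeds 3; genes with two or more such siRNAs out of three were retested with fresh siRNAs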", "calls": "active = raised luciferase; inactive = no rise", "note": "Shown is an unselected part of about 59,000 reagents. In the full data, about 1,510 (2.6%) were called active. 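Calls use total luciferase alone and ignore viability, so some active siRNAs may act by altering cell number.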 The numbers tell different reagents against one gene apart. Further read-outs or replicates are left out here."}
{"gene": "PCGF5 (polycomb group ring finger 5)", "reagent no.": 1, "total luciferase, z-score": -1.2, "Outcome": "inactive"}
{"gene": "PCGF5 (polycomb group ring finger 5)", "reagent no.": 2, "total luciferase, z-score": -0.0999, "Outcome": "inactive"}
{"gene": "PCGF5 (polycomb group ring finger 5)", "reagent no.": 3, "total luciferase, z-score": -0.121, "Outcome": "inactive"}
{"gene": "PPOX (protoporphyrinogen oxidase)", "reagent no.": 1, "total luciferase, z-score": 0.902, "Outcome": "inactive"}
{"gene": "PPOX (protoporphyrinogen oxidase)", "reagent no.": 2, "total luciferase, z-score": -0.359, "Outcome": "inactive"}
{"gene": "PPOX (protoporphyrinogen oxidase)", "reagent no.": 3, "total luciferase, z-score": -0.0681, "Outcome": "inactive"}

The list goes on; the last 2 above are carried over.
{"gene": "PPOX (protoporphyrinogen oxidase)", "reagent no.": 2, "total luciferase, z-score": -0.359, "Outcome": "inactive"}
{"gene": "PPOX (protoporphyrinogen oxidase)", "reagent no.": 3, "total luciferase, z-score": -0.0681, "Outcome": "inactive"}
{"gene": "C12orf43 (chromosome 12 open reading frame 43)", "reagent no.": 1, "total luciferase, z-score": 4.21, "Outcome": "active"}
{"gene": "C12orf43 (chromosome 12 open reading frame 43)", "reagent no.": 2, "total luciferase, z-score": 2.93, "Outcome": "inactive"}
{"gene": "C12orf43 (chromosome 12 open reading frame 43)", "reagent no.": 3, "total luciferase, z-score": -0.141, "Outcome": "inactive"}
{"gene": "VN1R1 (vomeronasal 1 receptor 1)", "reagent no.": 1, "total luciferase, z-score": 0.248, "Outcome": "inactive"}
{"gene": "VN1R1 (vomeronasal 1 receptor 1)", "reagent no.": 2, "total luciferase, z-score": -1.04, "Outcome": "inactive"}
{"gene": "VN1R1 (vomeronasal 1 receptor 1)", "reagent no.": 3, "total luciferase, z-score": 0.477, "Outcome": "inactive"}
